Assay results as given in paper PMC5897410.
These are yes or no findings as the source states them, for the method shown. Binding seen in cells or lysates may run through a third protein. Some binding calls cover weakened binding; strength is not graded here. Sequences can lack the tags named with a protein. Each block holds one molecule with its values, some of them ahead of it.

Chains of the proteins cited; added tags and fusions are not shown.
UniProt P10591: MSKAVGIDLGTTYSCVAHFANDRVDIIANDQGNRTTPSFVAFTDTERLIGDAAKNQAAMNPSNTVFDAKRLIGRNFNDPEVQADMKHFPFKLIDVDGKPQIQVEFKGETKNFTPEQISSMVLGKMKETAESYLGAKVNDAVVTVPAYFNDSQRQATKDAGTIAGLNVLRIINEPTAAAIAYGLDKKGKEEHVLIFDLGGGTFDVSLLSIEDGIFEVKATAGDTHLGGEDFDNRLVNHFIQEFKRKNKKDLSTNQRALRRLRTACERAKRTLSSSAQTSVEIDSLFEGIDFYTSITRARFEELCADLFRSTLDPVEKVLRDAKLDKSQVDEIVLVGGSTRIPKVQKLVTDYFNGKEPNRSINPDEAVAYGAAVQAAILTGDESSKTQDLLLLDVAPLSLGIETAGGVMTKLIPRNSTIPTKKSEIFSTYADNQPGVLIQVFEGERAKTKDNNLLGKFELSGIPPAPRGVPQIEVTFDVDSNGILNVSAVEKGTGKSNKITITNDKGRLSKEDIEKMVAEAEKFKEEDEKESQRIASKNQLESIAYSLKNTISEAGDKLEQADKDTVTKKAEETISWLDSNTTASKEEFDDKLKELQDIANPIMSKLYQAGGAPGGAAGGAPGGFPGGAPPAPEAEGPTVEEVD

Experiments:
[1] = target: T1, GST fused to the full mature aconitase (yeast (S. cerevisiae)) (UniProt P19414); assay: pull-down; lysates of yeast cells expressing GST-aconitase fusions, on glutathione sepharose beads; endogenous Ssa1 detected by Western blot with anti-Ssa1 antiserum
T1 sequence: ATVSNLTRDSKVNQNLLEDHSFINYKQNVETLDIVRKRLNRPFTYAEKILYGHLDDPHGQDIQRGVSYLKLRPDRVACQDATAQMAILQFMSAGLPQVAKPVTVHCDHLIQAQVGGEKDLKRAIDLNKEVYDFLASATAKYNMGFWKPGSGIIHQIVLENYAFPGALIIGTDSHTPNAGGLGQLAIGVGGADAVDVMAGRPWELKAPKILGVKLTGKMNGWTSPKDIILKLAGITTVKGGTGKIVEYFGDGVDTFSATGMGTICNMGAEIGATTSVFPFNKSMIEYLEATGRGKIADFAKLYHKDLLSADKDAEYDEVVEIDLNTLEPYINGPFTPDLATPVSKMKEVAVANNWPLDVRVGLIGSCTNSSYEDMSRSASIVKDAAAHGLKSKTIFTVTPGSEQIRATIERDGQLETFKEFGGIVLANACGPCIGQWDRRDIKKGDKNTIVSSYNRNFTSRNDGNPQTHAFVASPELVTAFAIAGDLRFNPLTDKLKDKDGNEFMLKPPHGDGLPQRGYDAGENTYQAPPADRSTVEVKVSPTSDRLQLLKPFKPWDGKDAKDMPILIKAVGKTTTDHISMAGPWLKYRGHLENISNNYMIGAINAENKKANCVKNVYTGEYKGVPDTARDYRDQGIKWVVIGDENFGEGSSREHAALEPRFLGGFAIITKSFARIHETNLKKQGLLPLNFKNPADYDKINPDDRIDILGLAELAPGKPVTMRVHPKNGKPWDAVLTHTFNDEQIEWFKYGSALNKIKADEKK

[2] = target: T2, GST fused to the unmutated aconitase (Aco1) C-terminal domain (yeast (S. cerevisiae)) (UniProt P19414); assay: as above
T2 sequence: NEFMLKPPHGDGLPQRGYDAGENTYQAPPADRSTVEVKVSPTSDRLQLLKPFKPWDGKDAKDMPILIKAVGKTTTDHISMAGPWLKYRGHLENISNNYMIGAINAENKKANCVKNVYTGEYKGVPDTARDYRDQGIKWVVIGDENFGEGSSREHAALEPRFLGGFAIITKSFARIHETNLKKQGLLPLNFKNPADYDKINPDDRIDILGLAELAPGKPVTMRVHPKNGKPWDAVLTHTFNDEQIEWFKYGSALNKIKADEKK

[3] = target: T3, GST-Aco1 K86A (yeast (S. cerevisiae)) (UniProt P19414); assay: as above
T3 sequence: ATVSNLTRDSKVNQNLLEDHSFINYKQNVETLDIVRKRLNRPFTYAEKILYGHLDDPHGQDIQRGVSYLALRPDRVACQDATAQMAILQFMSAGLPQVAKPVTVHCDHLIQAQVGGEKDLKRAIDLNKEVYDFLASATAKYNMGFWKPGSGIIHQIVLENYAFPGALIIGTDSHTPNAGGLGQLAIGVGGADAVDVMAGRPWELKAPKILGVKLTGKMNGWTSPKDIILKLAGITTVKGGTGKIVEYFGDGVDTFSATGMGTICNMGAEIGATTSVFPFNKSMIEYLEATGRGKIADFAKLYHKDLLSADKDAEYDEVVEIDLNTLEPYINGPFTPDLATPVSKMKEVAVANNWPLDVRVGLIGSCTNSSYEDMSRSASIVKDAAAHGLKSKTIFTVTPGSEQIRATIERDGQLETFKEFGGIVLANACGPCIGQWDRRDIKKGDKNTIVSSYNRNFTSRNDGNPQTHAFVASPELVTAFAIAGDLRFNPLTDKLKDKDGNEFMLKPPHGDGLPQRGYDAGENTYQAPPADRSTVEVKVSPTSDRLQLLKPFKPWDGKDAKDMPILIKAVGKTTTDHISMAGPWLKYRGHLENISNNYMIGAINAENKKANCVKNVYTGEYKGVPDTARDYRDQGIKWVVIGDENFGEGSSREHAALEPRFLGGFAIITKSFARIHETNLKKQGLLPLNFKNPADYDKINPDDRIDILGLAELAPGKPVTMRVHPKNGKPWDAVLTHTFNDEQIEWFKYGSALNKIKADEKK

[4] = target: T4, GST fused to the aconitase C-terminal domain lacking the last 6 amino acids (yeast (S. cerevisiae)) (UniProt P19414); assay: as above
T4 sequence: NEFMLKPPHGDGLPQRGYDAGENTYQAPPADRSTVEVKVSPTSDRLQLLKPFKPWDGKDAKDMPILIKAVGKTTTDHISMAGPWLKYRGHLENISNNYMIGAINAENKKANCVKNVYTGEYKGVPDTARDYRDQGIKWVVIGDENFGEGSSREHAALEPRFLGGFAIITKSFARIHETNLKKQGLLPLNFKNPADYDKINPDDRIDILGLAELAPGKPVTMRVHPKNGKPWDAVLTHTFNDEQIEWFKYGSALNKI

[5] = target: T2, GST fused to the unmutated aconitase (Aco1) C-terminal domain (yeast (S. cerevisiae)); assay: pull-down; purified Ssa1 (GenScript) added in increasing amounts to mixed yeast lysates with GST-C and HA-Aco1 or HA-N; read out as loss of the HA protein from the GST pull-down; only the binder purified
[6] = target: T2, GST fused to the unmutated aconitase (Aco1) C-terminal domain (yeast (S. cerevisiae)); assay: pull-down; separate yeast lysates (GST-C and HA-Aco1 or HA-N), mixed with increasing amounts of purified Ssa1 and incubated for two hours before GST pull-down; BSA as unrelated control protein
[7] = target: T2, GST fused to the unmutated aconitase (Aco1) C-terminal domain (yeast (S. cerevisiae)); assay: pull-down; separate yeast lysates expressing GST-C and HA-N or HA-Aco1, mixed and incubated for 2 hours in vitro; glutathione sepharose beads; Western blot with GST and HA antisera
[8] = target: T2, GST fused to the unmutated aconitase (Aco1) C-terminal domain (yeast (S. cerevisiae)); assay: pull-down; lysates of yeast cells co-expressing GST and HA fusions, on glutathione beads; lysis buffer 50 mM Tris-HCl, 150 mM KCl, 1% NP-40; 4 °C, 2 hours; Western blot with anti-GST and anti-HA
[9] = target: T4, GST fused to the aconitase C-terminal domain lacking the last 6 amino acids (yeast (S. cerevisiae)); assay: as above

binding [1]: binds
binding [2]: binds
binding [3]: binds
binding [4]: binds
Molecule: Ssa1 (cytosolic Hsp70), endogenous (from UniProt P10591 1-642)

binding [5]: binds
Molecule: Purified Ssa1 (GenScript) (from UniProt P10591 1-642)

binding [6]: binds
binding [7]: binds
binding [8]: binds
binding [9]: binds
B1: HA-tagged full Aco1 mature protein sequence, lacking its MTS (protein, UniProt P19414 17-778)
chain: ATVSNLTRDSKVNQNLLEDHSFINYKQNVETLDIVRKRLNRPFTYAEKILYGHLDDPHGQDIQRGVSYLKLRPDRVACQDATAQMAILQFMSAGLPQVAKPVTVHCDHLIQAQVGGEKDLKRAIDLNKEVYDFLASATAKYNMGFWKPGSGIIHQIVLENYAFPGALIIGTDSHTPNAGGLGQLAIGVGGADAVDVMAGRPWELKAPKILGVKLTGKMNGWTSPKDIILKLAGITTVKGGTGKIVEYFGDGVDTFSATGMGTICNMGAEIGATTSVFPFNKSMIEYLEATGRGKIADFAKLYHKDLLSADKDAEYDEVVEIDLNTLEPYINGPFTPDLATPVSKMKEVAVANNWPLDVRVGLIGSCTNSSYEDMSRSASIVKDAAAHGLKSKTIFTVTPGSEQIRATIERDGQLETFKEFGGIVLANACGPCIGQWDRRDIKKGDKNTIVSSYNRNFTSRNDGNPQTHAFVASPELVTAFAIAGDLRFNPLTDKLKDKDGNEFMLKPPHGDGLPQRGYDAGENTYQAPPADRSTVEVKVSPTSDRLQLLKPFKPWDGKDAKDMPILIKAVGKTTTDHISMAGPWLKYRGHLENISNNYMIGAINAENKKANCVKNVYTGEYKGVPDTARDYRDQGIKWVVIGDENFGEGSSREHAALEPRFLGGFAIITKSFARIHETNLKKQGLLPLNFKNPADYDKINPDDRIDILGLAELAPGKPVTMRVHPKNGKPWDAVLTHTFNDEQIEWFKYGSALNKIKADEKK
